At least one structure is not confirmed: it was looked up by name or label, or the drawing left a doubt.
Experiment: Odour description on paper blotter
Details: 1% solution in EtOH on paper blotter, 24 h

SMILES	Odour description
CCOc1cc(C=O)ccc1OCCC=C(C)C=CC1=C(C)CCCC1(C)C [Example 83, 3-ethoxy-4-((4-methyl-6-(2,6,6-trimethylcyclohex-1-en-1-yl)hexa-3,5-dien-1-yl)oxy)benzaldehyde]	powdery, vanilla, fruity, woody, ionone beta
CC(=O)CCc1ccc(OCCC=C(C)CCC=C(C)CCC=C(C)C)cc1 [Example 67, 4-(4-((4,8,12-trimethyltrideca-3,7,11-trien-1-yl)oxy)phenyl)butan-2-one]	fruity powdery (raspberry)
CCOc1cc(C=O)ccc1OCCC=C1CCCC1CC(C)C1CC=C(C)CC1 (stereo not shown) [Example 87, 3-ethoxy-4-(3-(2-(2-(4-methylcyclohex-3-en-1-yl)propyl)cyclopentylidene)propoxy)benzaldehyde]	green, fatty, creamy, warm milk, fatty, powdery, vanilla, fruity, peachy
CCOc1cc(C=O)ccc1OCCC=C(C)CCC1=C(C)CCCC1(C)C [Example 81, 3-ethoxy-4-((4-methyl-6-(2,6,6-trimethylcyclohex-1-en-1-yl)hex-3-en-1-yl)oxy)benzaldehyde]	powdery, vanilla

Source: patent US20240417359A1, “PRECURSORS OF PHENOLIC FRAGRANT COMPOUNDS” (GIVAUDAN SA, priority 2021, published 2024)
